We go through 1 substance from CN111484554A.

Chains of the proteins cited; added tags and fusions are not shown. Lines headed by an entry give the natural chain unless they say otherwise; changes in a name come on top. A line that says so, or that is headed by a name, gives the form on record, which may keep a tag or linker.
UniProt P41273: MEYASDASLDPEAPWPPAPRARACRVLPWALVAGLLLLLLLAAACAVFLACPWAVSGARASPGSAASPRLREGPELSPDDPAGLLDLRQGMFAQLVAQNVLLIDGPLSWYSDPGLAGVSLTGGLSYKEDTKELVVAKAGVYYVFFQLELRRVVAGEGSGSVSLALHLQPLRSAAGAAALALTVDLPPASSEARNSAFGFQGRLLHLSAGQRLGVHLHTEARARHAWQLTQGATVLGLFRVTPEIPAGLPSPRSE
4-1BB(24-180)-His重组蛋白 (4-1BB胞外段24-180位氨基酸, C端6个His) (Q07011, form named): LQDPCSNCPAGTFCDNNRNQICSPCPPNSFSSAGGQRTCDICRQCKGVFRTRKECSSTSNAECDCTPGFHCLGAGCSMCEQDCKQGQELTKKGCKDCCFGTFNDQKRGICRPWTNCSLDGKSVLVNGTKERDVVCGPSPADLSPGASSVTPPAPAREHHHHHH

The target of the assay is 全长4-1BBL (表达于293T细胞, GFP标签) (UniProt P41273). In words: flow cytometry on 293T cells expressing full-length 4-1BBL. (In flow cytometry, cells or beads pass a laser one at a time.)

Results are given in words; binding and its absence hold for the method and conditions named. Some binding calls cover weakened binding; strength is not graded here.

In the case of “4-1BB(24-180)-His重组蛋白 (4-1BB胞外段24-180位氨基酸, C端6个His) (from UniProt Q07011 24-180) (receptor)”, the binding result is reported as “binds”.
